PubChem BioAssay AID1259301, Sanger Institute – 2017
Here is one part, drawn at random, of 160 reagents tested. Of all reagents, 67 (42%) got an active call. 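Calls rest on synergy in any drug arm, not on siRNA-alone viability; rescreen tested four distinct siRNAs for each gene.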 Entries without a mark were called inactive. The numbers tell different reagents against one gene apart. Not all columns of the deposit are shown. Reagent sequences are not shown. Not stated in the record: the amount of reagent, the time to read-out.

Purpose: 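Kinases whose silencing adds to BYL719, cetuximab or trametinib effects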 (secondary rescreen of primary hits using four separate siRNAs per gene)
Cells: LS180 human colorectal cancer cells
Reagents: single siRNA against human genes
Challenge: anchor drug BYL719 at 1 µM, cetuximab at 5 µg/ml or trametinib at 10 nM, each against a DMSO vehicle arm
Measured: 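Replicate-averaged survival as a fraction of the non-targeting pool 2 control, and per-drug synergy scores measured relative to the anchor drug on its own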
Direction: synergy score with BYL719 and synergy score with cetuximab and synergy score with trametinib: higher = stronger synergistic (synthetic lethal) killing
Hit rule: 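Hit if synergy exceeds 0.10 with BYL719, cetuximab or trametinib, any single drug sufficing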
Calls: active = synergy with at least one drug; inactive = no synergy with any drug

HSPB8 #1 — synergy score with BYL719 = -0.0715 (active); synergy score with cetuximab = 0.0938; synergy score with trametinib = 0.115
HSPB8 #2 — synergy score with BYL719 = -0.209; synergy score with cetuximab = -0.164; synergy score with trametinib = -0.0557
HSPB8 #3 — synergy score with BYL719 = -0.305 (active); synergy score with cetuximab = 0.0327; synergy score with trametinib = 0.214
HSPB8 #4 — synergy score with BYL719 = 0.0747 (active); synergy score with cetuximab = 0.118; synergy score with trametinib = 0.167

2 entries already listed, arranged by “synergy score with trametinib”, lowest first:
HSPB8 #4 — synergy score with BYL719 = 0.0747 (active); synergy score with cetuximab = 0.118; synergy score with trametinib = 0.167
HSPB8 #3 — synergy score with BYL719 = -0.305 (active); synergy score with cetuximab = 0.0327; synergy score with trametinib = 0.214

Next reagents follow.
BMPR2 #1 — synergy score with BYL719 = 0.00424; synergy score with cetuximab = -0.0604; synergy score with trametinib = 0.0018
BMPR2 #2 — synergy score with BYL719 = -0.0265; synergy score with cetuximab = -0.0629; synergy score with trametinib = 0.0721
BMPR2 #3 — synergy score with BYL719 = -0.032 (active); synergy score with cetuximab = 0.071; synergy score with trametinib = 0.137
BMPR2 #4 — synergy score with BYL719 = -0.0902; synergy score with cetuximab = -0.129; synergy score with trametinib = 0.0424
SYK #1 — synergy score with BYL719 = -0.0791; synergy score with cetuximab = -0.102; synergy score with trametinib = -0.0756
SYK #2 — synergy score with BYL719 = -0.262; synergy score with cetuximab = -0.109; synergy score with trametinib = 0.0462
SYK #3 — synergy score with BYL719 = 0.0629 (active); synergy score with cetuximab = 0.0392; synergy score with trametinib = 0.116
SYK #4 — synergy score with BYL719 = -0.14; synergy score with cetuximab = -0.157; synergy score with trametinib = -0.0498
